Data source: PubChem BioAssay AID504793 (Drosophila RNAi Screening Center, 2011)
Screen: 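Whole-genome screen for parts of the DNA damage checkpoint at G2/M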 (primary screen). System: Drosophila S2R+ cells. Reagent: long dsRNA against Drosophila genes, about 0.25 µg dsRNA per well. Time to read-out: 4 days of dsRNA, then 4 hours of drug before read-out. Challenge: doxorubicin 0.5 µM for 4 hours to cause double-strand breaks, in cells also given a low, harmless dose of dsRNA against nbs to sensitise the assay. Measurement: 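Per-well count of mitotic cells stained for phospho-histone H3 after doxorubicin exposure, used as mitotic index; counts are raw and not normalised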. Reading the numbers: mitotic cells: higher = more cells in mitosis, weaker G2 arrest. Rule for the call: 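Genes are called active only when high mitotic counts were reproduced with independent dsRNAs and mitosis was checked for delay without damage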. Calls: active = confirmed in follow-up tests; inactive = not confirmed.
The deposit covers about 23,000 reagents; this is a random part of those with a known target gene and a result. Of all reagents, 62 (0.27%) got an active call. 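Calls come from follow-up tests whose scores are not deposited, so confirmed genes may have low counts here; counts are not normalised per plate.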 Raw values vary from plate to plate and are shown uncorrected. The numbers tell different reagents against one gene apart. Names joined by + are all predicted targets of the reagent. No sequences are given here.

gene | reagent | mitotic cells, replicate 1 | mitotic cells, replicate 2 | Call
CG6553 (GeneID 36537) | 1 | 5 | – | inactive
CG14464 (GeneID 3355132) | 1 | 8 | – | inactive
CG11672 (GeneID 40977) | 1 | 11 | – | inactive
tko (GeneID 31228) | 1 | 9 | – | inactive
tko (GeneID 31228) | 2 | 7 | – | inactive
Gycalpha99B (GeneID 43493) | 1 | 9 | – | inactive
Gycalpha99B (GeneID 43493) | 2 | 4 | – | inactive
CG6310 (GeneID 39237) | 1 | 4 | – | inactive
Prx4 (GeneID 53577) | 1 | 6 | – | inactive
Prx4 (GeneID 53577) | 2 | 4 | – | inactive
CG32091 (GeneID 39307) | 1 | 10 | – | inactive
CG14017 (GeneID 33787) | 1 | 3 | – | inactive
CG7330 (GeneID 40007) | 1 | 8 | – | inactive
CG7330 (GeneID 40007) | 2 | 3 | – | inactive
CG4849 (GeneID 43358) | 1 | 10 | – | inactive
CG4849 (GeneID 43358) | 2 | 3 | – | inactive
Uxt (GeneID 34893) | 1 | 4 | – | inactive
ana (GeneID 35913) | 1 | 3 | – | inactive
ana (GeneID 35913) | 2 | 5 | – | inactive
Naa60 (GeneID 39142) | 1 | 4 | – | inactive
Naa60 (GeneID 39142) | 2 | 9 | – | inactive
Burs (GeneID 42560) | 1 | 12 | – | inactive
CG13625 (GeneID 42931) | 1 | 9 | – | inactive
CG34199 (GeneID 5740128) | 1 | 8 | – | inactive
CG34199 (GeneID 5740128) | 2 | 3 | – | inactive
CG16824 (GeneID 5740834) | 1 | 4 | – | inactive
CG5758 (GeneID 35083) | 1 | 9 | 3 | inactive
CG5758 (GeneID 35083) | 2 | 5 | – | inactive
CG5758 (GeneID 35083) | 3 | 4 | – | inactive
Obp19c (GeneID 33039) | 1 | 13 | – | inactive
fzy (GeneID 34968) | 1 | 325 | – | inactive
PNUTS (GeneID 33270) | 1 | 6 | – | inactive
PNUTS (GeneID 33270) | 2 | 10 | – | inactive
CG18745 (GeneID 59141) | 1 | 7 | – | inactive
CG18745 (GeneID 59141) | 2 | 5 | – | inactive
XNP (GeneID 43080) | 1 | 7 | – | inactive
XNP (GeneID 43080) | 2 | 5 | – | inactive
ebo (GeneID 47141) | 1 | 5 | – | inactive
ebo (GeneID 47141) | 2 | 13 | – | inactive
CG8138 (GeneID 41619) | 1 | 5 | – | inactive
Gapdh2 (GeneID 32545) | 1 | 15 | – | inactive
Gapdh2 (GeneID 32545) | 2 | 11 | – | inactive
CG16978 (GeneID 50446) | 1 | 10 | – | inactive
CG13130 (retired record) (GeneID 50439) | 1 | 13 | – | inactive
CG13130 (retired record) (GeneID 50439) | 2 | 6 | – | inactive
mRpL22 (GeneID 32662) | 1 | 5 | – | inactive
mRpL22 (GeneID 32662) | 2 | 4 | – | inactive
CG5721 (GeneID 37084) | 1 | 4 | – | inactive
CG32448 (GeneID 318032) | 1 | 5 | – | inactive
MESR6 (GeneID 40083) | 1 | 1 | – | inactive
MESR6 (GeneID 40083) | 2 | 9 | – | inactive
CG8300 (GeneID 31658) | 1 | 9 | – | inactive
CG8300 (GeneID 31658) | 2 | 4 | – | inactive
Cyp6t2Psi (GeneID 3772355) | 1 | 8 | – | inactive
Cyp6t2Psi (GeneID 3772355) | 2 | 7 | – | inactive
Ldaf1 (GeneID 326240) | 1 | 9 | – | inactive
Ldaf1 (GeneID 326240) | 2 | 12 | – | inactive
Mmp1 (GeneID 37949) | 1 | 9 | – | inactive
CG14455 (GeneID 40480) | 1 | 5 | – | inactive
CG14455 (GeneID 40480) | 2 | 14 | – | inactive
CG15701 (GeneID 36801) | 1 | 9 | – | inactive
spaw (GeneID 246568) | 1 | 7 | – | inactive
Sara (GeneID 44263) | 1 | 4 | – | inactive
Baldspot (GeneID 39860) | 1 | 4 | – | inactive
CG11843 (GeneID 43432) | 1 | 5 | – | inactive
CG33342 (GeneID 2768684) | 1 | 19 | – | inactive
CG42808 + CG42807 | 1 | 3 | – | inactive
CG42808 + CG42807 | 2 | 6 | – | inactive
CG7275 (GeneID 39669) | 1 | 6 | – | inactive
ND-MLRQ (GeneID 317928) | 1 | 5 | – | inactive
put (GeneID 41772) | 1 | 2 | – | inactive
per (GeneID 31251) | 1 | 8 | – | inactive
per (GeneID 31251) | 2 | 7 | – | inactive
CG6951 (GeneID 40222) | 1 | 5 | – | inactive
CG30265 (GeneID 37622) | 1 | 10 | – | inactive
CtsB (GeneID 32341) | 1 | 9 | – | inactive
Slimp (GeneID 318604) | 1 | 93 | – | inactive
CG9269 (GeneID 41663) | 1 | 9 | – | inactive
Rbf (GeneID 31027) | 1 | 12 | – | active
Rbf (GeneID 31027) | 2 | 6 | – | inactive
aph-1 (GeneID 33467) | 1 | 2 | – | inactive
CG33223 (GeneID 2768867) | 1 | 10 | – | inactive
CG33223 (GeneID 2768867) | 2 | 7 | – | inactive
TotE (GeneID 35275) | 1 | 15 | – | inactive
OSCP1 (GeneID 36300) | 1 | 3 | – | inactive
CG13601 (GeneID 42826) | 1 | 7 | – | inactive
Bicra (GeneID 43435) | 1 | 18 | – | inactive
Bicra (GeneID 43435) | 2 | 11 | – | inactive
hep (GeneID 32256) | 1 | 4 | – | inactive
hep (GeneID 32256) | 2 | 12 | – | inactive
hep (GeneID 32256) | 3 | 8 | – | inactive
Chsy (GeneID 32497) | 1 | 10 | – | inactive
Chsy (GeneID 32497) | 2 | 10 | – | inactive
TkR86C (GeneID 41286) | 1 | 3 | – | inactive
CG14339 (GeneID 33286) | 1 | 2 | – | inactive
CG14339 (GeneID 33286) | 2 | 7 | – | inactive
wds (GeneID 53428) | 1 | 45 | – | active
Nubp1 (GeneID 35000) | 1 | 2 | – | inactive
CG15878 (GeneID 38281) | 1 | 5 | – | inactive
CG15878 (GeneID 38281) | 2 | 5 | – | inactive
CG30270 (GeneID 251324) | 1 | 9 | – | inactive
CG8319 (GeneID 41165) | 1 | 4 | – | inactive
CG8319 (GeneID 41165) | 2 | 11 | – | inactive
CG5245 (GeneID 41530) | 1 | 6 | – | inactive
CG5245 (GeneID 41530) | 2 | 5 | – | inactive
Taf9 (GeneID 32762) | 1 | 11 | – | inactive
Taf9 (GeneID 32762) | 2 | 8 | – | inactive
Or85c (GeneID 41008) | 1 | 2 | – | inactive
Cyp313a4 (GeneID 41563) | 1 | 2 | – | inactive
Sgs1 (GeneID 33701) | 1 | 3 | – | inactive

17 entries from above, showing only “mitotic cells, replicate 1”.
fzy (GeneID 34968) = 325
PNUTS (GeneID 33270) #1 = 6
PNUTS (GeneID 33270) #2 = 10
CG18745 (GeneID 59141) #1 = 7
CG18745 (GeneID 59141) #2 = 5
XNP (GeneID 43080) #1 = 7
XNP (GeneID 43080) #2 = 5
ebo (GeneID 47141) #1 = 5
ebo (GeneID 47141) #2 = 13
CG8138 (GeneID 41619) = 5
Gapdh2 (GeneID 32545) #1 = 15
Gapdh2 (GeneID 32545) #2 = 11
CG16978 (GeneID 50446) = 10
CG13130 (retired record) (GeneID 50439) #1 = 13
CG13130 (retired record) (GeneID 50439) #2 = 6
mRpL22 (GeneID 32662) #1 = 5
mRpL22 (GeneID 32662) #2 = 4
